Experimental data: PubChem BioAssay AID602196 (INSERM, 2012)
This is an unselected part of about 23,000 reagents tested. Of all reagents, 455 (2%) were called active. 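Active includes both protection and sensitisation; some change values fall well beyond the stated -50 to +50 range.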 Reagents against one gene are numbered here. Not stated in the record: the amount of reagent.

- Aim: 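Genes whose knock-down alters cisplatin killing of lung cancer cells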
- Cells: human A549 lung cancer cells
- Knock-down reagent: siRNA pair against human genes
- Timing: 48 h transfection before cisplatin; time from cisplatin to read-out not stated
- Challenge: cisplatin at a dose killing half of control-siRNA cells; exact dose and duration not given
- Measured: 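Cisplatin cell death as a shift from the 50% death seen with control siRNA; siRNAs toxic or growth-blocking alone scored 0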
- Direction: two-siRNA summed score (-2 to +2): higher = both siRNAs protect from cisplatin killing; -2 means both sensitise; mean protection from cisplatin (shift in death) and protection from cisplatin (shift in death), siRNA C and protection from cisplatin (shift in death), siRNA D: higher = protection from cisplatin killing
- Rule for the call: 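Each siRNA scores 0 if harmful alone by LDH or WST-1, otherwise +1 if it reduces and -1 if it increases cisplatin killing; a gene is active when both siRNAs agree (sum +2 or -2)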
- Meaning of the calls: active = both siRNAs shift cisplatin killing the same way; inactive = no consistent shift, or siRNA harmful alone

gene knocked down | reagent | two-siRNA summed score (-2 to +2) | mean protection from cisplatin (shift in death) (%) | protection from cisplatin (shift in death), siRNA C (%) | protection from cisplatin (shift in death), siRNA D (%) | activity call
BAGE3 | 1 | 0 | 17.7 | 8.3 | 27.1 | inactive
BLOC1S1 | 1 | 0 | -5.3 | -28.2 | 17.6 | inactive
SLC22A3 | 1 | 0 | 5.9 | 13.8 | -2 | inactive
MRPL22 | 1 | -1 | -8.6 | 7.4 | -24.6 | inactive
MRPL22 | 2 | 0 | 14.7 | 13 | 16.4 | inactive
ELOVL4 | 1 | 0 | -0.6 | -0.6 | -0.5 | inactive
ESM1 | 1 | -2 | -16.4 | -14.8 | -17.9 | active
DHRS4L2 | 1 | -1 | -1 | 17.5 | -19.6 | inactive
OR2H1 | 1 | -1 | -11.3 | -21 | -1.6 | inactive

Entries above marked active, once more:
gene knocked down | reagent | two-siRNA summed score (-2 to +2) | mean protection from cisplatin (shift in death) (%) | protection from cisplatin (shift in death), siRNA C (%) | protection from cisplatin (shift in death), siRNA D (%) | activity call
ESM1 | 1 | -2 | -16.4 | -14.8 | -17.9 | active

The list goes on:
gene knocked down | reagent | two-siRNA summed score (-2 to +2) | mean protection from cisplatin (shift in death) (%) | protection from cisplatin (shift in death), siRNA C (%) | protection from cisplatin (shift in death), siRNA D (%) | activity call
LOC440266 | 1 | 0 | 14.4 | 8.3 | 20.5 | inactive
WDR83 | 1 | 0 | -3.3 | -3.5 | -3.1 | inactive
HTR6 | 1 | 0 | -4 | 1.2 | -9.2 | inactive
CORO2B | 1 | 1 | 8.7 | 0.9 | 16.6 | inactive
PPARGC1B | 1 | 0 | 15.2 | 14.2 | 16.2 | inactive
COPS7A | 1 | 0 | 14 | 8 | 20.1 | inactive
CYB561D2 | 1 | 0 | 3.6 | 3.4 | 3.9 | inactive
KITLG | 1 | -1 | -16.3 | -23.6 | -9.1 | inactive
RPL37A | 1 | 0 | 7.6 | 4.3 | 10.9 | inactive
TNKS2 | 1 | 0 | 3.8 | 5.4 | 2.1 | inactive
LOC255620 | 1 | 0 | 12.1 | 19.3 | 5 | inactive
SYCE1 | 1 | 0 | 5.1 | 3.4 | 6.7 | inactive
FBXO11 | 1 | 0 | 4.5 | -0.7 | 9.7 | inactive
CRABP2 | 1 | 0 | 2.2 | 9 | -4.7 | inactive
